# Values of other authors as cited in US9757338B2 (priority 2010, dated 2017).
# Details: in vivo
structure (smiles),measurement,value
"COc1cc2c(cc1OC)C(=O)C(CC1CCN(Cc3ccccc3)CC1)C2.Cl (racemic) [Donepezil, (±)-2,3-dihydro-5,6-dimethoxy-2-[[1-(phenylmethyl)-4-piperidinyl]methyl]-1H-inden-1-one hydrochloride]",crossing of the blood-brain barrier,easily crosses the blood-brain barrier
